{"source": "patent US10842765B2", "about": "“Methods of reducing or preventing oxidation of small dense ldl or membrane polyunsaturated fatty acids” (Amarin Pharmaceuticals Ireland Limited, priority 2016, dated 2020)", "system": "human LDL", "test": "Copper-induced unfractionated LDL oxidation, TBARS, Example 7", "type": "biochemical", "settings": "each agent 10.0 μM; 1 hour", "note": "At least one compound was matched to its structure with a doubt left."}
{"smiles": "CC(C)OC(=O)C(C)(C)Oc1ccc(C(=O)c2ccc(Cl)cc2)cc1", "note": "[Fenofibrate]", "values": [{"measurement": "effect on unfractionated LDL oxidation", "value": "no significant effect on unfractionated LDL oxidation"}]}
